# Assay results as given in patent publication US20040110727A1, “Aldehyde-releasing compounds” (priority 2000, published 2004).
# Test system: DNA
# Assay: Stability of [14C]Adriamycin-DNA adducts (temperature lability, dissociation at 37° C.)
structure (smiles),measurement,setting,value
COc1cccc2c1C(=O)c1c(O)c3c(c(O)c1C2=O)C[C@@](O)(C(=O)CO)C[C@@H]3O[C@H]1C[C@H](N)[C@H](O)[C@H](C)O1 [Adriamycin],melting temperature (Tm) of adducts,AN-9/esterase-mediated adducts in vitro,74.3±3.5 °C
same,melting temperature (Tm) of adducts,"adducts formed in IMR-32 cells in the presence of AN-9 (4 μM [14C] Adriamycin 2 hr, then 260 μM AN-9 2 hr)",75.1±0.4 °C
same,melting temperature (Tm) of adducts,formaldehyde-mediated adducts in vitro,72.2±1.6 °C
